Data published in the supplement of paper PMC12067093, “Discovery and optimisation of a covalent ligand for TRIM25 and its application to targeted protein ubiquitination” (Chemical Science, 2025).
This is one part of the list.
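Also: competitive chemoproteomic profiling in live THP-1 cells with an iodoacetamide desthiobiotin (IA-DTB) probe, comparing probe-labelled peptide intensities in compound-treated cells against DMSO-treated controls.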

By UniProt entry, the sequences of proteins in these tests, tags left out. Where a name states a change or a piece, a line headed by the entry shows the natural chain unless it says otherwise.
UniProt Q9H9F9, whole entry, looked up: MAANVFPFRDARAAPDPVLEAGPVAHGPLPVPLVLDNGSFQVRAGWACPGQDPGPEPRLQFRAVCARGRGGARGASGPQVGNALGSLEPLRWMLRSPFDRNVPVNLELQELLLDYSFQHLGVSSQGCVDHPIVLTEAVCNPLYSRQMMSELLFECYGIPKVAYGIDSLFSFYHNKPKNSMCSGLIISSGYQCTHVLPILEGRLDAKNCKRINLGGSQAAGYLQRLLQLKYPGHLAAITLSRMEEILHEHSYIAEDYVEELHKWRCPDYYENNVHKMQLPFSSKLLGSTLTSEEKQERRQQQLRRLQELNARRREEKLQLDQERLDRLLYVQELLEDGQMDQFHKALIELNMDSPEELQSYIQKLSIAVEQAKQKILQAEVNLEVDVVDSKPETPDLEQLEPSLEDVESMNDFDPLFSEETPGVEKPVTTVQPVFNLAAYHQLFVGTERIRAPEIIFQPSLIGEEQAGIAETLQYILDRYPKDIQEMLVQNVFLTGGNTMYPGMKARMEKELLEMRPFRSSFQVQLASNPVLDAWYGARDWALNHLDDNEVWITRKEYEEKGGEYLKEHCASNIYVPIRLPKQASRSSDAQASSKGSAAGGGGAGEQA
UniProt P11766: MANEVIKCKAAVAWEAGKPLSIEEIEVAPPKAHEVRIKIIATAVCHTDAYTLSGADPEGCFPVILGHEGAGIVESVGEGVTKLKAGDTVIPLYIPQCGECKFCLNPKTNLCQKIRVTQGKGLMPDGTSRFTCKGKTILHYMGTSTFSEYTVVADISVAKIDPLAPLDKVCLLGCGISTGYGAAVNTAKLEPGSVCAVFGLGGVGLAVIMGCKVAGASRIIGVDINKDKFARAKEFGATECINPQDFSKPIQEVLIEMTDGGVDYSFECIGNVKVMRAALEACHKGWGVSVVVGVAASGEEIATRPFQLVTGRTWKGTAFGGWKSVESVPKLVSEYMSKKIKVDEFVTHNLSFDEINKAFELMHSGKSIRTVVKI
UniProt Q03154: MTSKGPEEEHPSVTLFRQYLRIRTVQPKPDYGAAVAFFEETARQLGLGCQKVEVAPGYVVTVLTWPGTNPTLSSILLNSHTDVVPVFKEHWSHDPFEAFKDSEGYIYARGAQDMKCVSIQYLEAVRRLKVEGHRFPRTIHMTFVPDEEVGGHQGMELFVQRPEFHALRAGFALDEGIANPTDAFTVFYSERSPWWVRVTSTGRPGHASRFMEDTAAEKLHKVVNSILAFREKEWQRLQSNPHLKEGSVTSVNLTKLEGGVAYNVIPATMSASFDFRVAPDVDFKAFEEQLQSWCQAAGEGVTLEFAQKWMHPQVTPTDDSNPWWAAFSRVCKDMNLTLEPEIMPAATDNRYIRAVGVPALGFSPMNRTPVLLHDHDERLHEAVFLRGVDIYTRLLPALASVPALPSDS
UniProt Q96SZ5, whole entry, looked up: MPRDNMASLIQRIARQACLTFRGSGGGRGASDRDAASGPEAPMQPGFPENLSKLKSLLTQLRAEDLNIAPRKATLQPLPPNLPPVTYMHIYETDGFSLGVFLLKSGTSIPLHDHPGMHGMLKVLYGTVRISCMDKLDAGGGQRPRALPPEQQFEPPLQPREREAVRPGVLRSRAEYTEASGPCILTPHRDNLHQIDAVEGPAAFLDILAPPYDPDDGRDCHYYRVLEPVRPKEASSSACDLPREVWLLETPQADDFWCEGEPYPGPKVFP
UniProt Q9H2P0: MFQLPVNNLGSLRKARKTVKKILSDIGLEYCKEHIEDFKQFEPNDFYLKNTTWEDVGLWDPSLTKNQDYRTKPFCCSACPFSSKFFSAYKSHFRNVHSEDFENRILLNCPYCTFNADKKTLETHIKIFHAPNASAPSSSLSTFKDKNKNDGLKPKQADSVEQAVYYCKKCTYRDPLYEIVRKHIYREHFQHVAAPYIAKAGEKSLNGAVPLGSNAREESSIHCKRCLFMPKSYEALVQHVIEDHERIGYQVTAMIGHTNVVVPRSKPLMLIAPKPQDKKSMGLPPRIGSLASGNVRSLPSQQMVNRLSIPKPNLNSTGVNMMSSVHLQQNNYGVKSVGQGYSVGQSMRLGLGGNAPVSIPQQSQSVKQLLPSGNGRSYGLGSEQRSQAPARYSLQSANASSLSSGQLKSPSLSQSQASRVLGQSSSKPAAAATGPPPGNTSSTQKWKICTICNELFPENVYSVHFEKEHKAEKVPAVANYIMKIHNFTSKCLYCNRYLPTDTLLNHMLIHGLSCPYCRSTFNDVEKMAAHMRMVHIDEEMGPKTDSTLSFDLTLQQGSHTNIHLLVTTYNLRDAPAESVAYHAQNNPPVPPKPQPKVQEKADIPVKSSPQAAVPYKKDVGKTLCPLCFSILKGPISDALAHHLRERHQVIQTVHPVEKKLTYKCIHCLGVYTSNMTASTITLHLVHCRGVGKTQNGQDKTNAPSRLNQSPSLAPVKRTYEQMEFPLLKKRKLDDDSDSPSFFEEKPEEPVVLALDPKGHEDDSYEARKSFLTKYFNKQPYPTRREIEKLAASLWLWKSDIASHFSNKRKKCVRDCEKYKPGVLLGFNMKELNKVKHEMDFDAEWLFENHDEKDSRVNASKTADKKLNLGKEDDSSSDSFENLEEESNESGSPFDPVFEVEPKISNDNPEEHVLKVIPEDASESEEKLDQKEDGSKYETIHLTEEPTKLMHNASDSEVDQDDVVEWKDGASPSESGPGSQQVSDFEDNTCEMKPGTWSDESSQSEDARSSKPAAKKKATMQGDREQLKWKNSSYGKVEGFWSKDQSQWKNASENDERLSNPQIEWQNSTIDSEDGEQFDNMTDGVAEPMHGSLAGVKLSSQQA
UniProt O60488: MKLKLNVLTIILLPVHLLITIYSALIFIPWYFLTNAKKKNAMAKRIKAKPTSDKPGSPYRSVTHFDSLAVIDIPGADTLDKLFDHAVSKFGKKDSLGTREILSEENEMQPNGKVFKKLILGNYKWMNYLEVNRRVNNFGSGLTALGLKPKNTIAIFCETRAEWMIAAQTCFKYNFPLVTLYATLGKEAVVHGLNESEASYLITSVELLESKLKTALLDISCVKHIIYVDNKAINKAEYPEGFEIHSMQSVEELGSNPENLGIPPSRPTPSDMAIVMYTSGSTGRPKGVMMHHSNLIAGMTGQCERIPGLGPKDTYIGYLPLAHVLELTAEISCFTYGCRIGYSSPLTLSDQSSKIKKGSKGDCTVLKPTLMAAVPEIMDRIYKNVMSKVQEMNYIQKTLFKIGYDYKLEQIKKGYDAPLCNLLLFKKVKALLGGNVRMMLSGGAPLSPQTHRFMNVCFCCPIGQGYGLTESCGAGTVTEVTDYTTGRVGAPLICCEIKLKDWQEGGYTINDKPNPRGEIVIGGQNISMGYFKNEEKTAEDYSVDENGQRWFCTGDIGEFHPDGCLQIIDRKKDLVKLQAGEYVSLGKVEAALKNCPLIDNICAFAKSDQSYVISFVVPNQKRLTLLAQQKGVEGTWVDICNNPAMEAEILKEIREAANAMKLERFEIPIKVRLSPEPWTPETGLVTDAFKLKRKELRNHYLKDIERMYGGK
UniProt O95573: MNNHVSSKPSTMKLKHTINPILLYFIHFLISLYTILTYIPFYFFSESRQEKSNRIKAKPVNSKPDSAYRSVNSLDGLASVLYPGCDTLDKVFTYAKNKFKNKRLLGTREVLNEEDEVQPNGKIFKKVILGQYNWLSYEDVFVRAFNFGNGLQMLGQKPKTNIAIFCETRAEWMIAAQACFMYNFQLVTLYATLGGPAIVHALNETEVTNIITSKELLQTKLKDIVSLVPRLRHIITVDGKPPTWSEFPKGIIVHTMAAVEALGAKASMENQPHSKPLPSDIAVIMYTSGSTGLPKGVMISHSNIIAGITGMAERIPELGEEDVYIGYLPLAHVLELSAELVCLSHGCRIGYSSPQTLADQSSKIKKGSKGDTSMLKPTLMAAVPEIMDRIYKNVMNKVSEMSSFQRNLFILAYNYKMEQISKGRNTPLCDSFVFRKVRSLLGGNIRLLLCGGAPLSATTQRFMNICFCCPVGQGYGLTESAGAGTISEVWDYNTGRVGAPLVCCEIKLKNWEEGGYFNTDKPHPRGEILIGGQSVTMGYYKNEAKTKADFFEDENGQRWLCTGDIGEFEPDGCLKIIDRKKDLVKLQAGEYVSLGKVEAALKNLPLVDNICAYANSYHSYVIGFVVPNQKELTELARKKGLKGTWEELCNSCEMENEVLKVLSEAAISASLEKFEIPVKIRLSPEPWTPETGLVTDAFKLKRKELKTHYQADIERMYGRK
UniProt Q13444: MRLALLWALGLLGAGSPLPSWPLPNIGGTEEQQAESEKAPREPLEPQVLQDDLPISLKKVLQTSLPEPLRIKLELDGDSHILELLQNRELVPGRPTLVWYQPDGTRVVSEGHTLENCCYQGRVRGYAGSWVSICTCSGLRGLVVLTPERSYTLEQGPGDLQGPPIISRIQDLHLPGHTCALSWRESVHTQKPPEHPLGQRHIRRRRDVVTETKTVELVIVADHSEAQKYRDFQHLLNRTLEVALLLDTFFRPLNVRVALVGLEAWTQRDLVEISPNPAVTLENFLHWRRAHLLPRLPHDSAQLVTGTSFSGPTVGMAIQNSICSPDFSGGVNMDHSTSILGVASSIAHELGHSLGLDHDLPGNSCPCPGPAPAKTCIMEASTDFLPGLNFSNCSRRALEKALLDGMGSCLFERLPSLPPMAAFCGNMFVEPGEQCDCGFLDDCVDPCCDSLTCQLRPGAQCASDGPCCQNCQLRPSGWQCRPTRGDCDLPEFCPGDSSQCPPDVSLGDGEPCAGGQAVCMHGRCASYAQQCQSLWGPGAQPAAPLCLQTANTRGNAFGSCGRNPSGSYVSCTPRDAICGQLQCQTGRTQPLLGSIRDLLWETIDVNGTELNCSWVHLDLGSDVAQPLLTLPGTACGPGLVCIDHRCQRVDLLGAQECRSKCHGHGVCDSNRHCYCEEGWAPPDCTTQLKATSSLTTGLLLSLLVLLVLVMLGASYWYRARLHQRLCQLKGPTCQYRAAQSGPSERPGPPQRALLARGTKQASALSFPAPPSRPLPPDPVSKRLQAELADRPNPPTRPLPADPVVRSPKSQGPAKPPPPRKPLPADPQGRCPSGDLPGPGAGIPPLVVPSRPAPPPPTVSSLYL
UniProt Q16186: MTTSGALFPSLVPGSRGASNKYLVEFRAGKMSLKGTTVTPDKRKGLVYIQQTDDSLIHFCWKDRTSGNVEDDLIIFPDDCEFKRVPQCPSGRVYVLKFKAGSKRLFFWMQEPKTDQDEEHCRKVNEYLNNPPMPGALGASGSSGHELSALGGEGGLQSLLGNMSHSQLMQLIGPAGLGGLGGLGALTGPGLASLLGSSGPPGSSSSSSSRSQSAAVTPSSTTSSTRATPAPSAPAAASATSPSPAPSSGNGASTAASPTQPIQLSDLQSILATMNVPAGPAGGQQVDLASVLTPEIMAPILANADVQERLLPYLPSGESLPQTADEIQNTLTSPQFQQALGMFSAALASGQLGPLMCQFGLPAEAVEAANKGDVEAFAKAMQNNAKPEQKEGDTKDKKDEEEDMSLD
UniProt P78536: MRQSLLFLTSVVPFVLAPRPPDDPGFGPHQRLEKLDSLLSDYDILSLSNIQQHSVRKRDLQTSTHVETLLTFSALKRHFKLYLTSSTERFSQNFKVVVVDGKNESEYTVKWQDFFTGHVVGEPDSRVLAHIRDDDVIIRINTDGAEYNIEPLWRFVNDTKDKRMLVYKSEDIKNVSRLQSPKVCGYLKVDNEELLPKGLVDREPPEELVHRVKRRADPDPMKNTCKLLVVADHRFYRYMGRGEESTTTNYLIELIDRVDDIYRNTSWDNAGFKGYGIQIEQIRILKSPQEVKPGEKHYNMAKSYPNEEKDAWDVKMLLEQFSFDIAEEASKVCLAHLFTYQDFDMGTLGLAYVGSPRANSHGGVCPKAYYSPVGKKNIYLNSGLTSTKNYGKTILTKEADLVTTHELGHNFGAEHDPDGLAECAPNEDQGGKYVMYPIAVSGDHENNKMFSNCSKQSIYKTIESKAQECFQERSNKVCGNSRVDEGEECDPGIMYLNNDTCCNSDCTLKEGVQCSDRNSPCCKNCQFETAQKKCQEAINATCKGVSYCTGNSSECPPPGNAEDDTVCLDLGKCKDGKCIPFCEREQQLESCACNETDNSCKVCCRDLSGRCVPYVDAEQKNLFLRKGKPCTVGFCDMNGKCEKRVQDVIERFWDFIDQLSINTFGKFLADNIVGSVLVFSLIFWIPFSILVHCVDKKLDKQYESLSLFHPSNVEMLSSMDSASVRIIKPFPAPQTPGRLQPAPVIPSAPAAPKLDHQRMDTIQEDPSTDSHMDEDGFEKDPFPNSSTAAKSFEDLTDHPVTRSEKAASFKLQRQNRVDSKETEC

What follows are targets tested with CC1Cc2ccccc2N1C(=O)C1CCCN(C1)C(=O)CCl (mixture of isomers) [TRIM25 ligand 11 (diastereomer mixture)] (assay: probe-labelled cysteine peptide fold change vs DMSO (competition) (log2 fold change); higher = less target engagement (more negative = stronger competition)). Settings: 10 µM; THP-1; incubation time: 4 h.
In the case of “ADAR_P55265_909_GETVNDCHAEIISR (UniProt P55265)”, the “probe-labelled cysteine peptide fold change” value is reported as 0.121.
For “AFG3L2_Q9Y4W6_313_DVAGCEEAKLEIMEFVNFLK (UniProt Q9Y4W6)”, the “probe-labelled cysteine peptide fold change” value was -0.133.
In the case of “ACTR5_Q9H9F9_48_AGWACPGQDPGPEPR (UniProt Q9H9F9)”, the “probe-labelled cysteine peptide fold change” value is reported as 0.0286.
In the case of “ADH5_P11766_100_AGDTVIPLYIPQCGECK (UniProt P11766)”, the “probe-labelled cysteine peptide fold change” value is reported as 0.0491.
For “ADA_P00813_262_LRQENMHFEICPWSSYLTGAWKPDTEHAVIR (UniProt P00813)”, the “probe-labelled cysteine peptide fold change” value was -0.152.
“ADGRA2_Q96PE1_194+196_VVDLGTEFLTCDCHLR (UniProt Q96PE1)” was tested, and the “probe-labelled cysteine peptide fold change” value was 0.081.
In the case of “ACTB_P60709_17_DDDIAALVVDNGSGMCK (UniProt P60709)”, the “probe-labelled cysteine peptide fold change” value is reported as -0.0879.
With “ACY1_Q03154_116_CVSIQYLEAVR (UniProt Q03154)” the “probe-labelled cysteine peptide fold change” value was 0.058.
With “ADO_Q96SZ5_239_EASSSACDLPR (UniProt Q96SZ5)” the “probe-labelled cysteine peptide fold change” value was -0.0846.
With “ADNP_Q9H2P0_79_TKPFCCSACPFSSK (UniProt Q9H2P0)” the “probe-labelled cysteine peptide fold change” value was -0.0632.
With ADH5_P11766_111_TNLCQK (UniProt P11766) the “probe-labelled cysteine peptide fold change” value was 0.0149.
With “ACSL4_O60488_221_TALLDISCVK (UniProt O60488)” the “probe-labelled cysteine peptide fold change” value was 0.106.
“ACSL3_O95573_503_VGAPLVCCEIK (UniProt O95573)” was tested, and the “probe-labelled cysteine peptide fold change” value was 0.154.
In the case of “AFF1_P51825_1181_LSTNVCTLALNSSLVDLVHYTR (UniProt P51825)”, the “probe-labelled cysteine peptide fold change” value is reported as -0.154.
For “ADAR_P55265_630_LGNSCEFR (UniProt P55265)”, the “probe-labelled cysteine peptide fold change” value was 0.0291.
For “ADAT1_Q9BUB4_263_CVPGEAGDSGKPGAAFHQVGLLR (UniProt Q9BUB4)”, the “probe-labelled cysteine peptide fold change” value was 0.0425.
“ADAM15_Q13444_583_DAICGQLQCQTGR (UniProt Q13444)” was tested, and the “probe-labelled cysteine peptide fold change” value was -0.0132.
For “ADRM1_Q16186_80_TSGNVEDDLIIFPDDCEFKR (UniProt Q16186)”, the “probe-labelled cysteine peptide fold change” value was -0.147.
In the case of “ADNP_Q9H2P0_449_ICTICNELFPENVYSVHFEK (UniProt Q9H2P0)”, the “probe-labelled cysteine peptide fold change” value is reported as -0.16.

Same assay, conditions: 50 µM; THP-1; incubation time: 4 h
For “AGFG1_P52594_32_CFDCDQR (UniProt P52594)”, the “probe-labelled cysteine peptide fold change” value was 0.231.
For “ADAR_P55265_773_WFPAVCAHSK (UniProt P55265)”, the “probe-labelled cysteine peptide fold change” value was -0.19.
With “ACTN4_O43707_793_ACLISLGYDVENDRQGEAEFNR (UniProt O43707)” the “probe-labelled cysteine peptide fold change” value was 0.202.
With “ADAM17_P78536_365_ANSHGGVCPK (UniProt P78536)” the “probe-labelled cysteine peptide fold change” value was 0.139.
In the case of “ADSL_P30566_180_CCLWIQDLCMDLQNLK (UniProt P30566)”, the “probe-labelled cysteine peptide fold change” value is reported as 0.312.
“ADAM10_O14672_484_DECCFDANQPEGR (UniProt O14672)” was tested, and the “probe-labelled cysteine peptide fold change” value was -0.081.
For “ADH5_P11766_97+100_AGDTVIPLYIPQCGECK (UniProt P11766)”, the “probe-labelled cysteine peptide fold change” value was -0.0722.
With “AGBL1_Q96MI9_809_CSLSGEDLNR (UniProt Q96MI9)” the “probe-labelled cysteine peptide fold change” value was -0.297.
For “ACSL4_O60488_157_NTIAIFCETR (UniProt O60488)”, the “probe-labelled cysteine peptide fold change” value was 0.477.
In the case of “AFG3L2_Q9Y4W6_525_LASLTPGFSGADVANVCNEAALIAAR (UniProt Q9Y4W6)”, the “probe-labelled cysteine peptide fold change” value is reported as -0.117.
With “ACSL1_P33121_311_ATENTVNPCPDDTLISFLPLAHMFER (UniProt P33121)” the “probe-labelled cysteine peptide fold change” value was -0.177.
With “ADAM17_P78536_333_VCLAHLFTYQDFDMGTLGLAYVGSPR (UniProt P78536)” the “probe-labelled cysteine peptide fold change” value was 0.0473.
“ADK_P55263_106_AATFFGCIGIDK (UniProt P55263)” was tested, and the “probe-labelled cysteine peptide fold change” value was -0.0159.
With “ACOX3_O15254_426_EACGGHGYLAMNR (UniProt O15254)” the “probe-labelled cysteine peptide fold change” value was -0.0932.
“ADSS_P30520_182_MCDLVSDFDGFSER (UniProt P30520)” was tested, and the “probe-labelled cysteine peptide fold change” value was 0.0196.
In the case of “ACSF3_Q4G176_86_LCGCVGGDLREER (UniProt Q4G176)”, the “probe-labelled cysteine peptide fold change” value is reported as 0.259.
With “ADAR_P55265_909_GETVNDCHAEIISR (UniProt P55265)” the “probe-labelled cysteine peptide fold change” value was 0.0309.
“AFG3L2_Q9Y4W6_313_DVAGCEEAKLEIMEFVNFLK (UniProt Q9Y4W6)” was tested, and the “probe-labelled cysteine peptide fold change” value was -0.232.
For “ACTR5_Q9H9F9_48_AGWACPGQDPGPEPR (UniProt Q9H9F9)”, the “probe-labelled cysteine peptide fold change” value was -0.0707.
In the case of “ADH5_P11766_100_AGDTVIPLYIPQCGECK (UniProt P11766)”, the “probe-labelled cysteine peptide fold change” value is reported as -0.0475.
With “ADA_P00813_262_LRQENMHFEICPWSSYLTGAWKPDTEHAVIR (UniProt P00813)” the “probe-labelled cysteine peptide fold change” value was -0.106.
With “ADGRA2_Q96PE1_194+196_VVDLGTEFLTCDCHLR (UniProt Q96PE1)” the “probe-labelled cysteine peptide fold change” value was 0.204.
With “ACTB_P60709_17_DDDIAALVVDNGSGMCK (UniProt P60709)” the “probe-labelled cysteine peptide fold change” value was -0.264.
“ACY1_Q03154_116_CVSIQYLEAVR (UniProt Q03154)” was tested, and the “probe-labelled cysteine peptide fold change” value was -0.021.
In the case of “ADO_Q96SZ5_239_EASSSACDLPR (UniProt Q96SZ5)”, the “probe-labelled cysteine peptide fold change” value is reported as -0.257.
In the case of “ADNP_Q9H2P0_79_TKPFCCSACPFSSK (UniProt Q9H2P0)”, the “probe-labelled cysteine peptide fold change” value is reported as 0.0404.
ADH5_P11766_111_TNLCQK (UniProt P11766) was tested, and the “probe-labelled cysteine peptide fold change” value was -0.0362.
With “ACSL4_O60488_221_TALLDISCVK (UniProt O60488)” the “probe-labelled cysteine peptide fold change” value was 0.108.
For “ACSL3_O95573_503_VGAPLVCCEIK (UniProt O95573)”, the “probe-labelled cysteine peptide fold change” value was 0.0586.
With “AFF1_P51825_1181_LSTNVCTLALNSSLVDLVHYTR (UniProt P51825)” the “probe-labelled cysteine peptide fold change” value was 0.00908.
For “ADAR_P55265_630_LGNSCEFR (UniProt P55265)”, the “probe-labelled cysteine peptide fold change” value was 0.029.
In the case of “ADAT1_Q9BUB4_263_CVPGEAGDSGKPGAAFHQVGLLR (UniProt Q9BUB4)”, the “probe-labelled cysteine peptide fold change” value is reported as -0.0347.
In the case of “ADAM15_Q13444_583_DAICGQLQCQTGR (UniProt Q13444)”, the “probe-labelled cysteine peptide fold change” value is reported as 0.0611.
With “ADRM1_Q16186_80_TSGNVEDDLIIFPDDCEFKR (UniProt Q16186)” the “probe-labelled cysteine peptide fold change” value was -0.133.
“ADNP_Q9H2P0_449_ICTICNELFPENVYSVHFEK (UniProt Q9H2P0)” was tested, and the “probe-labelled cysteine peptide fold change” value was -0.0416.
